# Data published in the supplement of paper PMC8728848.
# The list shows a part of the results.
# B1: Lb MiSSP8 (Laccaria bicolor) (protein)
# chain: MYFHTLFACATLMLITTAHASPTVINSLDSRKADLNGDVEARHAADWRRDSDWRRDSDWRRDSDWRRDSD
# How the values were obtained:
# Experiment in all cases: glycan array binding signal (z-score within array); higher = stronger binding
# Conditions in all cases: glycan notation: IUPAC condensed, linker removed
# [1] = biological target: Neu5Ac(a2-6)Gal(b1-4)GlcNAc(b1-2)Man(a1-3)[Neu5Ac(a2-3)Gal(b1-4)GlcNAc(b1-2)Man(a1-6)]Man(b1-4)GlcNAc(b1-4)GlcNAc
# Procedure, shortened: (§1)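 Negative Z-scores can be read as non-binding. The Z-score is calculated within each array and then averaged across arrays of one protein sequence at different concentrations or buffers and across linkers. Arrays, 3228 in all, were curated from the Consortium for Functional Glycomics database and kept only where the protein sequence was available.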
# [2] = biological target: Neu5Ac(a2-6)Gal(b1-4)GlcNAc(b1-2)Man(a1-3)[Neu5Ac(a2-6)Gal(b1-4)GlcNAc(b1-2)Man(a1-6)]Man(b1-4)GlcNAc(b1-4)GlcNAc
# Procedure, shortened: as §1
# [3] = biological target: Neu5Ac(a2-6)Gal(b1-4)GlcNAc(b1-2)Man(a1-3)[Neu5Ac(a2-6)Gal(b1-4)GlcNAc(b1-2)Man(a1-6)]Man(b1-4)GlcNAc(b1-4)[Fuc(a1-6)]GlcNAc
# Procedure, shortened: as §1
# [4] = biological target: Neu5Ac(a2-6)Gal(b1-4)GlcNAc(b1-2)Man(a1-6)Man(b1-4)GlcNAc(b1-4)GlcNAc
# Procedure, shortened: as §1
# [5] = biological target: Neu5Ac(a2-6)Gal(b1-4)GlcNAc(b1-2)Man(a1-6)[Gal(b1-4)GlcNAc(b1-2)Man(a1-3)]Man(b1-4)GlcNAc(b1-4)GlcNAc
# Procedure, shortened: as §1
# [6] = biological target: Neu5Ac(a2-6)Gal(b1-4)GlcNAc(b1-2)Man(a1-6)[GlcNAc(b1-2)Man(a1-3)]Man(b1-4)GlcNAc(b1-4)GlcNAc
# Procedure, shortened: as §1
# [7] = biological target: Neu5Ac(a2-6)Gal(b1-4)GlcNAc(b1-2)Man(a1-6)[Man(a1-3)]Man(b1-4)GlcNAc(b1-4)GlcNAc
# Procedure, shortened: as §1
# [8] = biological target: Neu5Ac(a2-6)Gal(b1-4)GlcNAc(b1-2)[Neu5Ac(a2-6)Gal(b1-4)GlcNAc(b1-4)]Man(a1-3)[GlcNAc(b1-4)][Neu5Ac(a2-6)Gal(b1-4)GlcNAc(b1-2)[Neu5Ac(a2-6)Gal(b1-4)GlcNAc(b1-6)]Man(a1-6)]Man(b1-4)GlcNAc(b1-4)GlcNAc
# Procedure, shortened: as §1
# [9] = biological target: Neu5Ac(a2-6)Gal(b1-4)GlcNAc(b1-2)[Neu5Ac(a2-6)Gal(b1-4)GlcNAc(b1-4)]Man(a1-3)[GlcNAc(b1-4)][Neu5Ac(a2-6)Gal(b1-4)GlcNAc(b1-4)Man(a1-6)]Man(b1-4)GlcNAc(b1-4)GlcNAc
# Procedure, shortened: as §1
# [10] = biological target: Neu5Ac(a2-6)Gal(b1-4)GlcNAc(b1-2)[Neu5Ac(a2-6)Gal(b1-4)GlcNAc(b1-6)]Man(a1-6)[Neu5Ac(a2-6)Gal(b1-4)GlcNAc(b1-2)Man(a1-3)][GlcNAc(b1-4)]Man(b1-4)GlcNAc(b1-4)GlcNAc
# Procedure, shortened: as §1
# [11] = biological target: Neu5Ac(a2-6)Gal(b1-4)GlcNAc(b1-3)Gal(b1-3)GlcNAc
# Procedure, shortened: as §1
# [12] = biological target: Neu5Ac(a2-6)Gal(b1-4)GlcNAc(b1-3)Gal(b1-4)GlcNAc
# Procedure, shortened: as §1
# [13] = biological target: Neu5Ac(a2-6)Gal(b1-4)GlcNAc(b1-3)Gal(b1-4)GlcNAc(b1-2)Man(a1-3)[Neu5Ac(a2-6)Gal(b1-4)GlcNAc(b1-3)Gal(b1-4)GlcNAc(b1-2)Man(a1-6)]GalNAc
# Procedure, shortened: as §1
# [14] = biological target: Neu5Ac(a2-6)Gal(b1-4)GlcNAc(b1-3)Gal(b1-4)GlcNAc(b1-3)Gal(b1-4)GlcNAc
# Procedure, shortened: as §1
# [15] = biological target: Neu5Ac(a2-6)Gal(b1-4)GlcNAc(b1-3)Gal(b1-4)GlcNAc(b1-3)Gal(b1-4)GlcNAc(b1-2)Man(a1-3)[Neu5Ac(a2-6)Gal(b1-4)GlcNAc(b1-3)Gal(b1-4)GlcNAc(b1-3)Gal(b1-4)GlcNAc(b1-2)Man(a1-6)]GalNAc
# Procedure, shortened: as §1
# [16] = biological target: Neu5Ac(a2-6)Gal(b1-4)GlcNAc(b1-3)Gal(b1-4)GlcNAc(b1-3)GalNAc
# Procedure, shortened: as §1
# [17] = biological target: Neu5Ac(a2-6)Gal(b1-4)GlcNAc(b1-3)Gal(b1-4)GlcNAc(b1-3)[Neu5Ac(a2-6)Gal(b1-4)GlcNAc(b1-3)Gal(b1-4)GlcNAc(b1-6)]GalNAc
# Procedure, shortened: as §1
# [18] = biological target: Neu5Ac(a2-6)Gal(b1-4)GlcNAc(b1-3)Gal(b1-4)GlcNAc(b1-6)[Gal(b1-3)]GalNAc
# Procedure, shortened: as §1
# [19] = biological target: Neu5Ac(a2-6)Gal(b1-4)GlcNAc(b1-3)Gal(b1-4)[Fuc(a1-3)]GlcNAc(b1-3)Gal(b1-4)[Fuc(a1-3)]GlcNAc
# Procedure, shortened: as §1
# [20] = biological target: Neu5Ac(a2-6)Gal(b1-4)GlcNAc(b1-3)GalNAc
# Procedure, shortened: as §1
# [21] = biological target: Neu5Ac(a2-6)Gal(b1-4)GlcNAc(b1-3)[Neu5Ac(a2-6)Gal(b1-4)GlcNAc(b1-6)]GalNAc
# Procedure, shortened: as §1
# [22] = biological target: Neu5Ac(a2-6)Gal(b1-4)GlcNAc(b1-6)GalNAc
# Procedure, shortened: as §1
# [23] = biological target: Neu5Ac(a2-6)Gal(b1-4)GlcNAc(b1-6)[Gal(b1-3)GlcNAc(b1-3)]Gal(b1-4)Glc
# Procedure, shortened: as §1
# [24] = biological target: Neu5Ac(a2-6)Gal(b1-4)GlcNAc(b1-6)[Gal(b1-3)]GalNAc
# Procedure, shortened: as §1
# [25] = biological target: Neu5Ac(a2-6)Gal(b1-4)GlcNAc6S
# Procedure, shortened: as §1
# [26] = biological target: Neu5Ac(a2-6)GalNAc
# Procedure, shortened: as §1
# [27] = biological target: Neu5Ac(a2-6)GalNAc(b1-4)GlcNAc
# Procedure, shortened: as §1
# [28] = biological target: Neu5Ac(a2-6)GalNAc(b1-4)GlcNAc6S
# Procedure, shortened: as §1
# [29] = biological target: Neu5Ac(a2-6)GlcNAc(b1-4)GlcNAc
# Procedure, shortened: as §1
# [30] = biological target: Neu5Ac(a2-6)GlcNAc(b1-4)GlcNAc(b1-4)GlcNAc
# Procedure, shortened: as §1
binder,measurement,setting,value
B1,glycan array binding signal (z-score),[1],-0.606
same,glycan array binding signal (z-score),[2],0.529
same,glycan array binding signal (z-score),[3],-0.157
same,glycan array binding signal (z-score),[4],-0.399
same,glycan array binding signal (z-score),[5],-0.606
same,glycan array binding signal (z-score),[6],-0.668
same,glycan array binding signal (z-score),[7],-0.385
same,glycan array binding signal (z-score),[8],-0.744
same,glycan array binding signal (z-score),[9],-0.757
same,glycan array binding signal (z-score),[10],-0.675
same,glycan array binding signal (z-score),[11],-0.53
same,glycan array binding signal (z-score),[12],-0.971
same,glycan array binding signal (z-score),[13],-0.357
same,glycan array binding signal (z-score),[14],0.236
same,glycan array binding signal (z-score),[15],2.23
same,glycan array binding signal (z-score),[16],-0.778
same,glycan array binding signal (z-score),[17],1.74
same,glycan array binding signal (z-score),[18],-0.792
same,glycan array binding signal (z-score),[19],-0.633
same,glycan array binding signal (z-score),[20],-0.274
same,glycan array binding signal (z-score),[21],-0.737
same,glycan array binding signal (z-score),[22],-0.33
same,glycan array binding signal (z-score),[23],-0.357
same,glycan array binding signal (z-score),[24],-0.509
same,glycan array binding signal (z-score),[25],-0.806
same,glycan array binding signal (z-score),[26],-0.44
same,glycan array binding signal (z-score),[27],-0.971
same,glycan array binding signal (z-score),[28],-0.557
same,glycan array binding signal (z-score),[29],-0.592
same,glycan array binding signal (z-score),[30],0.423

# A different layout for part of the listing above.
binder	measurement	setting	value
B1	glycan array binding signal (z-score)	[1]	-0.606
same	glycan array binding signal (z-score)	[2]	0.529
same	glycan array binding signal (z-score)	[3]	-0.157
same	glycan array binding signal (z-score)	[4]	-0.399
same	glycan array binding signal (z-score)	[5]	-0.606
same	glycan array binding signal (z-score)	[6]	-0.668
